Data as given in patent publication US9101539B2, “Intranasal pharmaceutical compositions with improved pharmacokinetics” (SHIN NIPPON BIOMEDICAL LABORATORIES, LTD., priority 2009, dated 2015).
Structures can show the parent of a compound that is named as a salt.

Conditions: dry powder, 1.25 mg freebase equivalent weight of granisetron, 0.5 cm^3 on the tongue

## CN1C2CCCC1CC(NC(=O)c1nn(C)c3ccccc13)C2 (stereo not drawn) [granisetron freebase]
  perceived taste: almost no perceptible taste

## CN1C2CCCC1CC(NC(=O)c1nn(C)c3ccccc13)C2 (stereo not drawn) [granisetron hydrochloride]
  ranking for the strength of the perceived taste: granisetron freebase<20% granisetron hydrochloride and 80% granisetron freebase<<granisetron hydrochloride
  ranking of perceived objectionableness: granisetron freebase<20% granisetron hydrochloride and 80% granisetron freebase<<granisetron hydrochloride
